Data: article PMC8194061
No constants are given. Whether binding was seen depends on the method and setting. In cells and extracts the contact can be indirect. Some results given as binding are weak or reduced against the parent protein; the word gives no strength.

By UniProt entry, the sequences of proteins in these tests, tags left out.
UniProt Q05BC3: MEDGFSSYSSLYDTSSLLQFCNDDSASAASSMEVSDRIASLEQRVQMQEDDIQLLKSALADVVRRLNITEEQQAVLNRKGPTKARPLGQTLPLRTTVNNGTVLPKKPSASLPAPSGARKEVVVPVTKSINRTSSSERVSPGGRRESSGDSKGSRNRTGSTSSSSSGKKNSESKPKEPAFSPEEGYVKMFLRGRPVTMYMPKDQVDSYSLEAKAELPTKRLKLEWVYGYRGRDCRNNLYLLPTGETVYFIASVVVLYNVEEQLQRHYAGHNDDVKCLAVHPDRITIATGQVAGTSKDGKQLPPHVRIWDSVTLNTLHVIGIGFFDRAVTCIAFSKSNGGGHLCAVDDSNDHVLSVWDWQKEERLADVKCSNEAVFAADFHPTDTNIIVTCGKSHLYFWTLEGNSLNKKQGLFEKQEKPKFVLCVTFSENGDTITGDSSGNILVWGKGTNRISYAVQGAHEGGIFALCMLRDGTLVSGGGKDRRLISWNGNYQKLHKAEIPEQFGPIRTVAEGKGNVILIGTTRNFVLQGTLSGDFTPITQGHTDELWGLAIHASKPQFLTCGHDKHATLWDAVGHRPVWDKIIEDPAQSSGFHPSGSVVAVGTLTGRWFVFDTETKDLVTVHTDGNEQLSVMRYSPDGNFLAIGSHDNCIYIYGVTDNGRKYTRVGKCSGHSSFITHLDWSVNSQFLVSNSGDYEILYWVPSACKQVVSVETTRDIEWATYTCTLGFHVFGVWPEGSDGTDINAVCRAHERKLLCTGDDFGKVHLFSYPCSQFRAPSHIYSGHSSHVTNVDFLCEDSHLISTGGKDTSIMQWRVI

Target: EML1-3DDK fusion protein (echinoderm microtubule associated protein like 1, mouse) (mouse) (UniProt Q05BC3)
Assay: co-IP; EML1-IP product from HEK293 cells expressing EML1-3DDK, blotted for NUDC and EML4

B1: EML4 (protein, UniProt Q9HC35 1-981)
chain: MDGFAGSLDDSISAASTSDVQDRLSALESRVQQQEDEITVLKAALADVLRRLAISEDHVASVKKSVSSKGQPSPRAVIPMSCITNGSGANRKPSHTSAVSIAGKETLSSAAKSGTEKKKEKPQGQREKKEESHSNDQSPQIRASPSPQPSSQPLQIHRQTPESKNATPTKSIKRPSPAEKSHNSWENSDDSRNKLSKIPSTPKLIPKVTKTADKHKDVIINQEGEYIKMFMRGRPITMFIPSDVDNYDDIRTELPPEKLKLEWAYGYRGKDCRANVYLLPTGKIVYFIASVVVLFNYEERTQRHYLGHTDCVKCLAIHPDKIRIATGQIAGVDKDGRPLQPHVRVWDSVTLSTLQIIGLGTFERGVGCLDFSKADSGVHLCIIDDSNEHMLTVWDWQKKAKGAEIKTTNEVVLAVEFHPTDANTIITCGKSHIFFWTWSGNSLTRKQGIFGKYEKPKFVQCLAFLGNGDVLTGDSGGVMLIWSKTTVEPTPGKGPKGVYQISKQIKAHDGSVFTLCQMRNGMLLTGGGKDRKIILWDHDLNPEREIEVPDQYGTIRAVAEGKADQFLVGTSRNFILRGTFNDGFQIEVQGHTDELWGLATHPFKDLLLTCAQDRQVCLWNSMEHRLEWTRLVDEPGHCADFHPSGTVVAIGTHSGRWFVLDAETRDLVSIHTDGNEQLSVMRYSIDGTFLAVGSHDNFIYLYVVSENGRKYSRYGRCTGHSSYITHLDWSPDNKYIMSNSGDYEILYWDIPNGCKLIRNRSDCKDIDWTTYTCVLGFQVFGVWPEGSDGTDINALVRSHNRKVIAVADDFCKVHLFQYPCSKAKAPSHKYSAHSSHVTNVSFTHNDSHLISTGGKDMSIIQWKLVEKLSLPQNETVADTTLTKAPVSSTESVIQSNTPTPPPSQPLNETAEEESRISSSPTLLENSLEQTVEPSEDHSEEESEEGSGDLGEPLYEEPCNEISKEQAKATLLEDQQDPSPSS
Which binding does the source give for B1 here?
The binding was “binds”.
